Laboratory results: PubChem BioAssay AID1224830 (NIAID, 2016)

Aim: 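Regulators of TLR4 signalling towards TNF-alpha in macrophage-like cells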 (primary screen)
Cells: human THP-1 monocytic leukaemia cells, TNF dual-luciferase reporter clone, PMA-differentiated to macrophage-like cells
Reagents: siRNA pool against human genes, 50 nM
Duration: LPS for 4 h, given about 3 days after siRNA transfection
Conditions: bacterial LPS (TLR4 ligand), 10 ng/ml
Measurement: 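TNF firefly reporter luminescence divided by renilla, normalised to the plate median, then turned into a robust z-score for each replicate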
Direction: TNF reporter robust z-score: higher = stronger TNF reporter response to LPS
Call rule: 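a well is active when its z-score exceeds 2.8 or falls below -1.5; control wells carry no call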
The whole screen tested about 18,000 reagents; this is a random part of them. In the full data, about 2,900 (16%) were called active. 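Calls are made per well; low scores hint the gene aids the LPS response, high scores that it dampens it.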 Repeated entries: four replicate wells of each siRNA pool.

target	TNF reporter robust z-score	Outcome
ZCCHC2 (zinc finger CCHC-type containing 2)	1.12	inactive
ZCCHC2 (zinc finger CCHC-type containing 2)	1.44	inactive
ZCCHC2 (zinc finger CCHC-type containing 2)	0.66	inactive
ZCCHC2 (zinc finger CCHC-type containing 2)	1.04	inactive
BTLA (B and T lymphocyte associated)	-1.34	inactive
BTLA (B and T lymphocyte associated)	-0.75	inactive
BTLA (B and T lymphocyte associated)	-0.8	inactive
BTLA (B and T lymphocyte associated)	-1.11	inactive
ARHGDIB (Rho GDP dissociation inhibitor beta)	-0.7	inactive
ARHGDIB (Rho GDP dissociation inhibitor beta)	-0.48	inactive
ARHGDIB (Rho GDP dissociation inhibitor beta)	-0.82	inactive
ARHGDIB (Rho GDP dissociation inhibitor beta)	-0.02	inactive
TLR3 (toll like receptor 3)	-0.2	inactive
TLR3 (toll like receptor 3)	1.45	inactive
TLR3 (toll like receptor 3)	-0.52	inactive
TLR3 (toll like receptor 3)	2.06	inactive
OR51G2 (olfactory receptor family 51 subfamily G member 2)	3.18	active
OR51G2 (olfactory receptor family 51 subfamily G member 2)	2.74	inactive
OR51G2 (olfactory receptor family 51 subfamily G member 2)	-0.34	inactive
OR51G2 (olfactory receptor family 51 subfamily G member 2)	-0.08	inactive
EEIG2 (EEIG family member 2)	0.58	inactive
EEIG2 (EEIG family member 2)	0.8	inactive
EEIG2 (EEIG family member 2)	0.87	inactive
EEIG2 (EEIG family member 2)	-0.06	inactive
GBA2 (glucosylceramidase beta 2)	-0.43	inactive
GBA2 (glucosylceramidase beta 2)	0.71	inactive
GBA2 (glucosylceramidase beta 2)	-0.33	inactive
GBA2 (glucosylceramidase beta 2)	-0.39	inactive
SMC1A (structural maintenance of chromosomes 1A)	2.12	inactive
SMC1A (structural maintenance of chromosomes 1A)	1.73	inactive
SMC1A (structural maintenance of chromosomes 1A)	0.62	inactive
SMC1A (structural maintenance of chromosomes 1A)	1.09	inactive
EPB41L2 (erythrocyte membrane protein band 4.1 like 2)	-0.87	inactive
EPB41L2 (erythrocyte membrane protein band 4.1 like 2)	-0.51	inactive
EPB41L2 (erythrocyte membrane protein band 4.1 like 2)	-0.81	inactive
EPB41L2 (erythrocyte membrane protein band 4.1 like 2)	-0.79	inactive
TIAM1 (TIAM Rac1 associated GEF 1)	-0.5	inactive
TIAM1 (TIAM Rac1 associated GEF 1)	0.89	inactive
TIAM1 (TIAM Rac1 associated GEF 1)	0.51	inactive
TIAM1 (TIAM Rac1 associated GEF 1)	1.43	inactive
H2AB1 (H2A.B variant histone 1)	-0.95	inactive
H2AB1 (H2A.B variant histone 1)	-0.31	inactive
H2AB1 (H2A.B variant histone 1)	-0.75	inactive
H2AB1 (H2A.B variant histone 1)	0.26	inactive
TRIM9 (tripartite motif containing 9)	-0.01	inactive
TRIM9 (tripartite motif containing 9)	-1.23	inactive
TRIM9 (tripartite motif containing 9)	-1.35	inactive
TRIM9 (tripartite motif containing 9)	-1.3	inactive
ITGAL (integrin subunit alpha L)	0.75	inactive
ITGAL (integrin subunit alpha L)	-0.38	inactive
ITGAL (integrin subunit alpha L)	-0.25	inactive
ITGAL (integrin subunit alpha L)	1.36	inactive
NAV3 (neuron navigator 3)	1	inactive
NAV3 (neuron navigator 3)	1.04	inactive
NAV3 (neuron navigator 3)	0.41	inactive
NAV3 (neuron navigator 3)	1.11	inactive
MDFI (MyoD family inhibitor)	0.24	inactive
MDFI (MyoD family inhibitor)	0.57	inactive
MDFI (MyoD family inhibitor)	2.09	inactive
MDFI (MyoD family inhibitor)	1.72	inactive
ATP6V1C2 (ATPase H+ transporting V1 subunit C2)	-0.05	inactive
ATP6V1C2 (ATPase H+ transporting V1 subunit C2)	0.31	inactive
ATP6V1C2 (ATPase H+ transporting V1 subunit C2)	-0.34	inactive
ATP6V1C2 (ATPase H+ transporting V1 subunit C2)	0.65	inactive
TPPP3 (tubulin polymerization promoting protein family member 3)	-1.21	inactive
TPPP3 (tubulin polymerization promoting protein family member 3)	-0.72	inactive
TPPP3 (tubulin polymerization promoting protein family member 3)	-0.52	inactive
TPPP3 (tubulin polymerization promoting protein family member 3)	0.33	inactive
LALBA (lactalbumin alpha)	1.17	inactive
LALBA (lactalbumin alpha)	1.12	inactive
LALBA (lactalbumin alpha)	0.87	inactive
LALBA (lactalbumin alpha)	1.04	inactive
AFG2A (AAA ATPase AFG2A)	0.12	inactive
AFG2A (AAA ATPase AFG2A)	-0.36	inactive
AFG2A (AAA ATPase AFG2A)	-1.07	inactive
AFG2A (AAA ATPase AFG2A)	-0.73	inactive
STPG4 (sperm-tail PG-rich repeat containing 4)	-0.01	inactive
STPG4 (sperm-tail PG-rich repeat containing 4)	1	inactive
STPG4 (sperm-tail PG-rich repeat containing 4)	-0.12	inactive
STPG4 (sperm-tail PG-rich repeat containing 4)	0.57	inactive
DNAJC22 (DnaJ heat shock protein family (Hsp40) member C22)	-0.36	inactive
DNAJC22 (DnaJ heat shock protein family (Hsp40) member C22)	-0.49	inactive
DNAJC22 (DnaJ heat shock protein family (Hsp40) member C22)	0.15	inactive
DNAJC22 (DnaJ heat shock protein family (Hsp40) member C22)	-0.65	inactive
SLC39A8	0.76	inactive
SLC39A8	1.21	inactive
SLC39A8	1.82	inactive
SLC39A8	-0.21	inactive
ZNF823 (zinc finger protein 823)	-0.57	inactive
ZNF823 (zinc finger protein 823)	0.36	inactive
ZNF823 (zinc finger protein 823)	0.12	inactive
ZNF823 (zinc finger protein 823)	0.11	inactive
H2AC4 (H2A clustered histone 4)	-0.6	inactive
H2AC4 (H2A clustered histone 4)	0.57	inactive
H2AC4 (H2A clustered histone 4)	-0.95	inactive
H2AC4 (H2A clustered histone 4)	-0.9	inactive
MLLT11 (MLLT11 transcription factor 7 cofactor)	0.43	inactive
MLLT11 (MLLT11 transcription factor 7 cofactor)	-1.11	inactive
MLLT11 (MLLT11 transcription factor 7 cofactor)	-0.15	inactive
MLLT11 (MLLT11 transcription factor 7 cofactor)	0.23	inactive
ZNF615 (zinc finger protein 615)	0.89	inactive
ZNF615 (zinc finger protein 615)	0.73	inactive
ZNF615 (zinc finger protein 615)	0.9	inactive
ZNF615 (zinc finger protein 615)	2.8	active
L1CAM (L1 cell adhesion molecule)	-0.69	inactive
L1CAM (L1 cell adhesion molecule)	-0.72	inactive
L1CAM (L1 cell adhesion molecule)	-1.65	active
L1CAM (L1 cell adhesion molecule)	0.05	inactive
OR5P3 (olfactory receptor family 5 subfamily P member 3)	-0.41	inactive
OR5P3 (olfactory receptor family 5 subfamily P member 3)	0.52	inactive
OR5P3 (olfactory receptor family 5 subfamily P member 3)	0.9	inactive
OR5P3 (olfactory receptor family 5 subfamily P member 3)	1.27	inactive
ANKRD11 (ankyrin repeat domain 11)	-0.44	inactive
ANKRD11 (ankyrin repeat domain 11)	-0.27	inactive
ANKRD11 (ankyrin repeat domain 11)	-0.81	inactive
ANKRD11 (ankyrin repeat domain 11)	0.78	inactive
ATG101 (autophagy related 101)	0.45	inactive
ATG101 (autophagy related 101)	0.22	inactive
ATG101 (autophagy related 101)	0.21	inactive
ATG101 (autophagy related 101)	0.58	inactive
DYNLL1 (dynein light chain LC8-type 1)	-0.42	inactive
DYNLL1 (dynein light chain LC8-type 1)	-0.76	inactive
DYNLL1 (dynein light chain LC8-type 1)	-1.18	inactive
DYNLL1 (dynein light chain LC8-type 1)	-1.02	inactive
UNC45A (unc-45 myosin chaperone A)	-0.18	inactive
UNC45A (unc-45 myosin chaperone A)	-0.93	inactive
UNC45A (unc-45 myosin chaperone A)	-0.25	inactive
UNC45A (unc-45 myosin chaperone A)	-0.84	inactive
SPATA17 (spermatogenesis associated 17)	1.81	inactive
SPATA17 (spermatogenesis associated 17)	2.5	inactive
SPATA17 (spermatogenesis associated 17)	1.26	inactive
SPATA17 (spermatogenesis associated 17)	1.45	inactive
PLBD2 (phospholipase B domain containing 2)	-0.71	inactive
PLBD2 (phospholipase B domain containing 2)	0.6	inactive
PLBD2 (phospholipase B domain containing 2)	0.16	inactive
PLBD2 (phospholipase B domain containing 2)	0.79	inactive
LRCH2	0.52	inactive
LRCH2	0.1	inactive
LRCH2	-0.33	inactive
LRCH2	0.83	inactive

11 entries from above, set out differently:
{"target": "L1CAM (L1 cell adhesion molecule)", "TNF reporter robust z-score": 0.05, "Outcome": "inactive"}
{"target": "OR5P3 (olfactory receptor family 5 subfamily P member 3)", "TNF reporter robust z-score": -0.41, "Outcome": "inactive"}
{"target": "OR5P3 (olfactory receptor family 5 subfamily P member 3)", "TNF reporter robust z-score": 0.52, "Outcome": "inactive"}
{"target": "OR5P3 (olfactory receptor family 5 subfamily P member 3)", "TNF reporter robust z-score": 0.9, "Outcome": "inactive"}
{"target": "OR5P3 (olfactory receptor family 5 subfamily P member 3)", "TNF reporter robust z-score": 1.27, "Outcome": "inactive"}
{"target": "ANKRD11 (ankyrin repeat domain 11)", "TNF reporter robust z-score": -0.44, "Outcome": "inactive"}
{"target": "ANKRD11 (ankyrin repeat domain 11)", "TNF reporter robust z-score": -0.27, "Outcome": "inactive"}
{"target": "ANKRD11 (ankyrin repeat domain 11)", "TNF reporter robust z-score": -0.81, "Outcome": "inactive"}
{"target": "ANKRD11 (ankyrin repeat domain 11)", "TNF reporter robust z-score": 0.78, "Outcome": "inactive"}
{"target": "ATG101 (autophagy related 101)", "TNF reporter robust z-score": 0.45, "Outcome": "inactive"}
{"target": "ATG101 (autophagy related 101)", "TNF reporter robust z-score": 0.22, "Outcome": "inactive"}
